{
  "source": "the supplement of paper PMC8728848",
  "binders": {"B1": {"name": "SspB C123 (Streptococcus gordonii), Q54186 (protein)", "chain": "MAHFHYSSLLAQPQINKEIKNEDGVDIDRTLVAKQSIGKFELKTEALTAGRPKTTSFVLVDPLPTGYKFDLDATKAASTGFDTTYDEASHTVTFKATDETLATYNADLTKPVETLHPTVVGRVLNDGATYTNNFTLTVNDAYGIKSNVVRVTTPGKPNDPDNPNNNYIKPTKVNKNKEGLNIDGKEVLAGSTNYYELTWDLDQYKGDKSSKEAIQNGFYYVDDYPEEALDVRPDLVKVADEKGNQVSGVSVQQYDSLEAAPKKVQDLLKKANITVKGAFQLFSADNPEEFYKQYVSTGTSLVITDPMTVKSEFGKTGGKYENKAYQIDFGNGYATEVVVNNVPKITPKKDVTVSLDPTSENLDGQTVQLYQTFNYRLIGGFIPQNHSEELEDYSFVDDYDQAGDQYTGNYKTFSSLNLTMKDGSVIKAGTDLTSQTTAETDATNGIVTVRFKEDFLQKISLDSPFQAETYLQMRRIAIGTFENTYVNTVNKVAYASAAALEHHHHHH"}},
  "assay_in_all_cases": "glycan array binding signal (z-score within array); higher = stronger binding",
  "settings_in_all_cases": "glycan notation: IUPAC condensed, linker removed",
  "key": {"Fuc(a1-2)Gal": {"molecular_target": "Fuc(a1-2)Gal", "procedure,_shortened": "(§1)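 The binding signal is a Z-score computed within each array and averaged over linkers. Arrays of the same protein sequence at different concentrations or buffers were also averaged together. Data originate from 3228 arrays in the Consortium for Functional Glycomics database, kept only where the protein sequence was available.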"}, "Fuc(a1-2)Gal(b1-3)GalNAc": {"molecular_target": "Fuc(a1-2)Gal(b1-3)GalNAc", "procedure,_shortened": "as §1"}, "[1]": {"molecular_target": "Fuc(a1-2)Gal(b1-3)GalNAc(a1-3)[Fuc(a1-2)]Gal(b1-4)Glc", "procedure,_shortened": "as §1"}, "[2]": {"molecular_target": "Fuc(a1-2)Gal(b1-3)GalNAc(a1-3)[Fuc(a1-2)]Gal(b1-4)GlcNAc", "procedure,_shortened": "as §1"}, "[3]": {"molecular_target": "Fuc(a1-2)Gal(b1-3)GalNAc(b1-3)Gal", "procedure,_shortened": "as §1"}, "[4]": {"molecular_target": "Fuc(a1-2)Gal(b1-3)GalNAc(b1-3)Gal(a1-4)Gal(b1-4)Glc", "procedure,_shortened": "as §1"}, "[5]": {"molecular_target": "Fuc(a1-2)Gal(b1-3)GalNAc(b1-4)[Neu5Ac(a2-3)]Gal(b1-4)Glc", "procedure,_shortened": "as §1"}, "Fuc(a1-2)Gal(b1-3)GlcNAc": {"molecular_target": "Fuc(a1-2)Gal(b1-3)GlcNAc", "procedure,_shortened": "as §1"}, "[6]": {"molecular_target": "Fuc(a1-2)Gal(b1-3)GlcNAc(b1-2)Man(a1-3)[Fuc(a1-2)Gal(b1-3)GlcNAc(b1-2)Man(a1-6)]Man(b1-4)GlcNAc(b1-4)GlcNAc", "procedure,_shortened": "as §1"}, "[7]": {"molecular_target": "Fuc(a1-2)Gal(b1-3)GlcNAc(b1-2)Man(a1-3)[Fuc(a1-2)Gal(b1-3)GlcNAc(b1-2)Man(a1-6)]Man(b1-4)GlcNAc(b1-4)[Fuc(a1-6)]GlcNAc", "procedure,_shortened": "as §1"}, "[8]": {"molecular_target": "Fuc(a1-2)Gal(b1-3)GlcNAc(b1-3)Gal(b1-4)Glc", "procedure,_shortened": "as §1"}, "[9]": {"molecular_target": "Fuc(a1-2)Gal(b1-3)GlcNAc(b1-3)GalNAc", "procedure,_shortened": "as §1"}, "[10]": {"molecular_target": "Fuc(a1-2)Gal(b1-3)GlcNAc(b1-3)[Fuc(a1-2)Gal(b1-3)GlcNAc(b1-6)]GalNAc", "procedure,_shortened": "as §1"}, "[11]": {"molecular_target": "Fuc(a1-2)Gal(b1-3)GlcNAc(b1-3)[Gal(b1-4)GlcNAc(b1-6)]Gal(b1-4)Glc", "procedure,_shortened": "as §1"}, "[12]": {"molecular_target": "Fuc(a1-2)Gal(b1-3)GlcNAc(b1-3)[Neu5Ac(a2-6)Gal(b1-4)GlcNAc(b1-6)]Gal(b1-4)Glc", "procedure,_shortened": "as §1"}, "[13]": {"molecular_target": "Fuc(a1-2)Gal(b1-3)GlcNAc6S", "procedure,_shortened": "as §1"}, "[14]": {"molecular_target": "Fuc(a1-2)Gal(b1-3)[Fuc(a1-4)]GlcNAc", "procedure,_shortened": "as §1"}, "[15]": {"molecular_target": "Fuc(a1-2)Gal(b1-3)[Fuc(a1-4)]GlcNAc(b1-2)Man(a1-3)[Fuc(a1-2)Gal(b1-3)[Fuc(a1-4)]GlcNAc(b1-2)Man(a1-3)]Man(b1-4)GlcNAc(b1-4)GlcNAc", "procedure,_shortened": "as §1"}, "[16]": {"molecular_target": "Fuc(a1-2)Gal(b1-3)[Fuc(a1-4)]GlcNAc(b1-2)Man(a1-3)[Fuc(a1-2)Gal(b1-3)[Fuc(a1-4)]GlcNAc(b1-2)Man(a1-6)]Man(b1-4)GlcNAc(b1-4)[Fuc(a1-6)]GlcNAc(b1-4)[Fuc(a1-6)]GlcNAc", "procedure,_shortened": "as §1"}, "[17]": {"molecular_target": "Fuc(a1-2)Gal(b1-3)[Fuc(a1-4)]GlcNAc(b1-3)[Fuc(a1-3)[Gal(b1-4)]GlcNAc(b1-6)]Gal(b1-4)Glc", "procedure,_shortened": "as §1"}, "[18]": {"molecular_target": "Fuc(a1-2)Gal(b1-3)[Fuc(a1-4)]GlcNAc(b1-3)[Gal(b1-4)GlcNAc(b1-6)]Gal(b1-4)Glc", "procedure,_shortened": "as §1"}, "[19]": {"molecular_target": "Fuc(a1-2)Gal(b1-4)Fuc(a1-3)]GlcNAc(b1-2)Man(a1-3)[Fuc(a1-2)Gal(b1-4)[Fuc(a1-3)]GlcNAc(b1-2)Man(a1-6)]Man(b1-4)GlcNAc(b1-4)GlcNAc", "procedure,_shortened": "as §1"}, "Fuc(a1-2)Gal(b1-4)Glc": {"molecular_target": "Fuc(a1-2)Gal(b1-4)Glc", "procedure,_shortened": "as §1"}, "Fuc(a1-2)Gal(b1-4)Glc6S": {"molecular_target": "Fuc(a1-2)Gal(b1-4)Glc6S", "procedure,_shortened": "as §1"}, "Fuc(a1-2)Gal(b1-4)GlcNAc": {"molecular_target": "Fuc(a1-2)Gal(b1-4)GlcNAc", "procedure,_shortened": "as §1"}, "[20]": {"molecular_target": "Fuc(a1-2)Gal(b1-4)GlcNAc(b1-2)Man", "procedure,_shortened": "as §1"}, "[21]": {"molecular_target": "Fuc(a1-2)Gal(b1-4)GlcNAc(b1-2)Man(a1-3)[Fuc(a1-2)Gal(b1-4)GlcNAc(b1-2)Man(a1-6)]Man(b1-4)GlcNAc(b1-4)GlcNAc", "procedure,_shortened": "as §1"}, "[22]": {"molecular_target": "Fuc(a1-2)Gal(b1-4)GlcNAc(b1-2)Man(a1-3)[Fuc(a1-2)Gal(b1-4)GlcNAc(b1-2)Man(a1-6)]Man(b1-4)GlcNAc(b1-4)[Fuc(a1-6)]GlcNAc", "procedure,_shortened": "as §1"}, "[23]": {"molecular_target": "Fuc(a1-2)Gal(b1-4)GlcNAc(b1-2)[Fuc(a1-2)Gal(b1-4)GlcNAc(b1-4)]Man(a1-3)[Fuc(a1-2)Gal(b1-4)GlcNAc(b1-2)Man(a1-6)]Man(b1-4)GlcNAc(b1-4)GlcNAc", "procedure,_shortened": "as §1"}, "[24]": {"molecular_target": "Fuc(a1-2)Gal(b1-4)GlcNAc(b1-3)Gal(b1-4)GlcNAc", "procedure,_shortened": "as §1"}},
  "note": "The other results are listed elsewhere or left out.",
  "data": [
    {"binder": "B1", "values": [
      {"measurement": "glycan array binding signal (z-score)", "setting": "Fuc(a1-2)Gal", "result": -0.078},
      {"measurement": "glycan array binding signal (z-score)", "setting": "Fuc(a1-2)Gal(b1-3)GalNAc", "result": -0.501},
      {"measurement": "glycan array binding signal (z-score)", "setting": "[1]", "result": 2.17},
      {"measurement": "glycan array binding signal (z-score)", "setting": "[2]", "result": -1.8},
      {"measurement": "glycan array binding signal (z-score)", "setting": "[3]", "result": 0.233},
      {"measurement": "glycan array binding signal (z-score)", "setting": "[4]", "result": -1.08},
      {"measurement": "glycan array binding signal (z-score)", "setting": "[5]", "result": 0.508},
      {"measurement": "glycan array binding signal (z-score)", "setting": "Fuc(a1-2)Gal(b1-3)GlcNAc", "result": -0.522},
      {"measurement": "glycan array binding signal (z-score)", "setting": "[6]", "result": -0.237},
      {"measurement": "glycan array binding signal (z-score)", "setting": "[7]", "result": -1.24},
      {"measurement": "glycan array binding signal (z-score)", "setting": "[8]", "result": -0.465},
      {"measurement": "glycan array binding signal (z-score)", "setting": "[9]", "result": 0.158},
      {"measurement": "glycan array binding signal (z-score)", "setting": "[10]", "result": 1.6},
      {"measurement": "glycan array binding signal (z-score)", "setting": "[11]", "result": -0.17},
      {"measurement": "glycan array binding signal (z-score)", "setting": "[12]", "result": 1.14},
      {"measurement": "glycan array binding signal (z-score)", "setting": "[13]", "result": -0.474},
      {"measurement": "glycan array binding signal (z-score)", "setting": "[14]", "result": -1.01},
      {"measurement": "glycan array binding signal (z-score)", "setting": "[15]", "result": 0.525},
      {"measurement": "glycan array binding signal (z-score)", "setting": "[16]", "result": -0.501},
      {"measurement": "glycan array binding signal (z-score)", "setting": "[17]", "result": -0.205},
      {"measurement": "glycan array binding signal (z-score)", "setting": "[18]", "result": -0.129},
      {"measurement": "glycan array binding signal (z-score)", "setting": "[19]", "result": 0.837},
      {"measurement": "glycan array binding signal (z-score)", "setting": "Fuc(a1-2)Gal(b1-4)Glc", "result": -1.34},
      {"measurement": "glycan array binding signal (z-score)", "setting": "Fuc(a1-2)Gal(b1-4)Glc6S", "result": -1.25},
      {"measurement": "glycan array binding signal (z-score)", "setting": "Fuc(a1-2)Gal(b1-4)GlcNAc", "result": -0.302},
      {"measurement": "glycan array binding signal (z-score)", "setting": "[20]", "result": 0.493},
      {"measurement": "glycan array binding signal (z-score)", "setting": "[21]", "result": -0.148},
      {"measurement": "glycan array binding signal (z-score)", "setting": "[22]", "result": -0.468},
      {"measurement": "glycan array binding signal (z-score)", "setting": "[23]", "result": 2.68},
      {"measurement": "glycan array binding signal (z-score)", "setting": "[24]", "result": -1.2}
    ]}
  ]
}
